Some of the results follow. Many values rest on one well or one pass, so single values are uncertain.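 The apoptosis fraction was the count of cleaved-PARP antibody-stained nuclei relative to all DNA-stained nuclei, imaged in 1,536-well plates. Screening doses were set so most cells survived, and baseline and induced cleaved-PARP levels vary greatly across cell lines.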
Columns and labels:
Experiment in all cases: cleaved PARP positive nuclei fraction relative to DMSO control; melanoma cells; higher = more apoptosis
Conditions in all cases: library dose: low library concentration; 72 h
WM115 = tested on: WM115
WM1716 = tested on: WM1716
WM1745 = tested on: WM1745
WM3526 = tested on: WM3526
WM3619 = tested on: WM3619
WM451Lu = tested on: WM451Lu

Cc1ccc(Nc2nccc(N(C)c3ccc4c(C)n(C)nc4c3)n2)cc1S(N)(=O)=O [Pazopanib] + Nc1ncn([C@H]2C[C@H](O)[C@@H](CO)O2)c(=O)n1 [decitabine] (first compound 0.4 µM, partner dose 0.1 µM)
cleaved PARP positive nuclei fraction (WM115): 41%
cleaved PARP positive nuclei fraction (WM1716): 49.2%
cleaved PARP positive nuclei fraction (WM1745): 90.5%
cleaved PARP positive nuclei fraction (WM3526): 32.6%
cleaved PARP positive nuclei fraction (WM3619): 101%
cleaved PARP positive nuclei fraction (WM451Lu): 121%

CCCCCCCCCCCCCCCCCCOP(=O)([O-])OC1CC[N+](C)(C)CC1 [Perifosine] + C#Cc1cccc(Nc2ncnc3cc(OCCOC)c(OCCOC)cc23)c1 [erlotinib] (first compound 0.4 µM, partner dose 0.8 µM)
cleaved PARP positive nuclei fraction (WM115): 442%
cleaved PARP positive nuclei fraction (WM1716): 39.1%
cleaved PARP positive nuclei fraction (WM1745): 105%
cleaved PARP positive nuclei fraction (WM3526): 54.8%
cleaved PARP positive nuclei fraction (WM3619): 105%
cleaved PARP positive nuclei fraction (WM451Lu): 91.5%

O=C(Nc1cc(C(F)(F)F)cc(C(F)(F)F)c1)c1cc(Cl)ccc1O + C#Cc1cccc(Nc2ncnc3cc(OCCOC)c(OCCOC)cc23)c1 [erlotinib] (first compound 0.016 µM, partner dose 0.8 µM)
cleaved PARP positive nuclei fraction (WM115): 65.8%
cleaved PARP positive nuclei fraction (WM1716): 136%
cleaved PARP positive nuclei fraction (WM1745): 203%
cleaved PARP positive nuclei fraction (WM3526): 47.8%
cleaved PARP positive nuclei fraction (WM3619): 105%
cleaved PARP positive nuclei fraction (WM451Lu): 77.8%

CCCCCCCCCCCCCCCCCCOP(=O)([O-])OC1CC[N+](C)(C)CC1 [Perifosine] + NC1(c2ccc(-c3nc4ccn5c(=O)[nH]nc5c4cc3-c3ccccc3)cc2)CCC1 [MK2206] (first compound 0.4 µM, partner dose 0.4 µM)
cleaved PARP positive nuclei fraction (WM115): 227%
cleaved PARP positive nuclei fraction (WM1716): 80.6%
cleaved PARP positive nuclei fraction (WM1745): 125%
cleaved PARP positive nuclei fraction (WM3526): 29.7%
cleaved PARP positive nuclei fraction (WM3619): 98.7%
cleaved PARP positive nuclei fraction (WM451Lu): 50.8%

O=C(/C=C/c1cccnc1)NCCCCC1CCN(C(=O)c2ccccc2)CC1 + CN(c1ncccc1CNc1nc(Nc2ccc3c(c2)CC(=O)N3)ncc1C(F)(F)F)S(C)(=O)=O [PF562271] (first compound 0.01 µM, partner dose 0.08 µM)
cleaved PARP positive nuclei fraction (WM115): 122%
cleaved PARP positive nuclei fraction (WM1716): 51.8%
cleaved PARP positive nuclei fraction (WM1745): 104%
cleaved PARP positive nuclei fraction (WM3526): 46.5%
cleaved PARP positive nuclei fraction (WM3619): 130%
cleaved PARP positive nuclei fraction (WM451Lu): 102%

Cc1ccc(Nc2nccc(N(C)c3ccc4c(C)n(C)nc4c3)n2)cc1S(N)(=O)=O [Pazopanib] + O=C(Nc1ccccc1)c1cc([N+](=O)[O-])ccc1Cl [GW9662] (first compound 0.4 µM, partner dose 2 µM)
cleaved PARP positive nuclei fraction (WM115): 218%
cleaved PARP positive nuclei fraction (WM1716): 56%
cleaved PARP positive nuclei fraction (WM1745): 153%
cleaved PARP positive nuclei fraction (WM3526): 80.8%
cleaved PARP positive nuclei fraction (WM3619): 110%
cleaved PARP positive nuclei fraction (WM451Lu): 136%

O=C(Nc1cc(C(F)(F)F)cc(C(F)(F)F)c1)c1cc(Cl)ccc1O + CN(C)S(=O)(=O)c1ccc2c(c1)/C(=C/c1cc3c([nH]1)CCCC3)C(=O)N2 [SU6656] (first compound 0.016 µM, partner dose 0.4 µM)
cleaved PARP positive nuclei fraction (WM115): 260%
cleaved PARP positive nuclei fraction (WM1716): 152%
cleaved PARP positive nuclei fraction (WM1745): 95.9%
cleaved PARP positive nuclei fraction (WM3526): 81.9%
cleaved PARP positive nuclei fraction (WM3619): 80.3%
cleaved PARP positive nuclei fraction (WM451Lu): 566%

CC[C@]1(O)C[C@H]2CN(CCc3c([nH]c4ccccc34)[C@@](C(=O)OC)(c3cc4c(cc3OC)N(C=O)[C@H]3[C@@](O)(C(=O)OC)[C@H](OC(C)=O)[C@]5(CC)C=CCN6CC[C@]43[C@@H]65)C2)C1 [vincristine] + O=C(Nc1cc(C(F)(F)F)cc(C(F)(F)F)c1)c1cc(Cl)ccc1O [IMD0354] (first compound 0.0001 µM, partner dose 0.016 µM)
cleaved PARP positive nuclei fraction (WM115): 746%
cleaved PARP positive nuclei fraction (WM1716): 268%
cleaved PARP positive nuclei fraction (WM1745): 110%
cleaved PARP positive nuclei fraction (WM3526): 151%
cleaved PARP positive nuclei fraction (WM3619): 200%
cleaved PARP positive nuclei fraction (WM451Lu): 180%

O=C(Nc1cc(C(F)(F)F)cc(C(F)(F)F)c1)c1cc(Cl)ccc1O + C[C@@H]1CCN(C(=O)CC#N)C[C@@H]1N(C)c1ncnc2[nH]ccc12 [CP690550] (first compound 0.016 µM, partner dose 1 µM)
cleaved PARP positive nuclei fraction (WM115): 90.3%
cleaved PARP positive nuclei fraction (WM1716): 75.7%
cleaved PARP positive nuclei fraction (WM1745): 97.6%
cleaved PARP positive nuclei fraction (WM3526): 100%
cleaved PARP positive nuclei fraction (WM3619): 107%
cleaved PARP positive nuclei fraction (WM451Lu): 98.8%

CCCCCCCCCCCCCCCCCCOP(=O)([O-])OC1CC[N+](C)(C)CC1 [Perifosine] + COc1cc(Nc2ncc(F)c(Nc3ccc4c(n3)NC(=O)C(C)(C)O4)n2)cc(OC)c1OC [Tamatinib] (first compound 0.4 µM, partner dose 0.4 µM)
cleaved PARP positive nuclei fraction (WM115): 71.4%
cleaved PARP positive nuclei fraction (WM1716): 310%
cleaved PARP positive nuclei fraction (WM1745): 149%
cleaved PARP positive nuclei fraction (WM3526): 83.8%
cleaved PARP positive nuclei fraction (WM3619): 189%
cleaved PARP positive nuclei fraction (WM451Lu): 136%

CCCCCCCCCCCCCCCCCCOP(=O)([O-])OC1CC[N+](C)(C)CC1 [Perifosine] + NCC(=O)Nc1ccc(-n2nc(C(F)(F)F)cc2-c2ccc3c(ccc4ccccc43)c2)cc1 [OSU03012] (first compound 0.4 µM, partner dose 1 µM)
cleaved PARP positive nuclei fraction (WM115): 79%
cleaved PARP positive nuclei fraction (WM1716): 132%
cleaved PARP positive nuclei fraction (WM1745): 76.2%
cleaved PARP positive nuclei fraction (WM3526): 372%
cleaved PARP positive nuclei fraction (WM3619): 83.2%
cleaved PARP positive nuclei fraction (WM451Lu): 875%

O=C(Nc1cc(C(F)(F)F)cc(C(F)(F)F)c1)c1cc(Cl)ccc1O + CCCCCCCCc1ccc(CCC(N)(CO)CO)cc1 [fingolimod] (first compound 0.016 µM, partner dose 2 µM)
cleaved PARP positive nuclei fraction (WM115): 122%
cleaved PARP positive nuclei fraction (WM1716): 35%
cleaved PARP positive nuclei fraction (WM1745): 78.2%
cleaved PARP positive nuclei fraction (WM3526): 81.1%
cleaved PARP positive nuclei fraction (WM3619): 89.6%
cleaved PARP positive nuclei fraction (WM451Lu): 140%

O=C(/C=C/c1cccnc1)NCCCCC1CCN(C(=O)c2ccccc2)CC1 + CCCCCCCCc1ccc(CCC(N)(CO)CO)cc1 [fingolimod] (first compound 0.01 µM, partner dose 2 µM)
cleaved PARP positive nuclei fraction (WM115): 106%
cleaved PARP positive nuclei fraction (WM1716): 392%
cleaved PARP positive nuclei fraction (WM1745): 202%
cleaved PARP positive nuclei fraction (WM3526): 90.1%
cleaved PARP positive nuclei fraction (WM3619): 127%
cleaved PARP positive nuclei fraction (WM451Lu): 79.3%

Cc1ccc(Nc2nccc(N(C)c3ccc4c(C)n(C)nc4c3)n2)cc1S(N)(=O)=O [Pazopanib] + COc1ccc(Cl)c(Nc2nc3ccccc3nc2NS(=O)(=O)c2cccc(NC(=O)C(C)(C)N)c2)c1 [XL147] (first compound 0.4 µM, partner dose 0.8 µM)
cleaved PARP positive nuclei fraction (WM115): 112%
cleaved PARP positive nuclei fraction (WM1716): 83.4%
cleaved PARP positive nuclei fraction (WM1745): 103%
cleaved PARP positive nuclei fraction (WM3526): 120%
cleaved PARP positive nuclei fraction (WM3619): 119%
cleaved PARP positive nuclei fraction (WM451Lu): 341%
